Reference: PubChem BioAssay AID2685 (National Center for Advancing Translational Sciences (NCATS), 2010)
The list shows a part of the results. Further columns of the screen follow, without active or inactive calls. The list favours compounds with an active or inconclusive main result. Potencies come from curve fits of mixed quality, noted in brackets.

Assay: qHTS Assay for Lipid Storage Modulators in Drosophila S3 Cells;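 on cell number change: cells counted by Cell Tracker Red CMTPX staining in the red channel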
Conditions: BODIPY lipid droplet fluorescence, 18-24 h; for cell number change: measured here: cell count max response, cells fed with added oleic acid
Procedure, shortened: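 Drosophila S3 cells loaded with oleic acid (400 uM, as added) and compounds at several concentrations; lipid droplets imaged by 488-nm laser-scanning cytometry, 500–530 nm intensity and object ratio to cell channel. Percent activity normalized to 20 uM Triacsin C.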

[1] = measured here: lipid fluorescence (Fed channel) AC50, cells fed with added oleic acid
[2] = measured here: cell number channel AC50, cells fed with added oleic acid

| SMILES | cell number change [%] | AC50 [1] | AC50 [2] |
| --- | --- | --- | --- |
| COc1ccccc1N1CCN(C(=O)c2cc(-c3ccccc3O)on2)CC1 | 16.2 | 25.9 µM [rising, single point] |  |
| Cc1ccc(NC(=O)C2CCN(S(=O)(=O)c3ccc4c(c3)NC(=O)CO4)CC2)cc1C |  | 6.51 µM [rising, single point] |  |
| CCOC(=O)c1c(NC(=S)N2CCN(C)CC2)sc(C)c1-c1ccccc1 | -35.6 | 2.91 µM [rising, partial curve] |  |
| CC1CCN(C(=O)CCNS(=O)(=O)c2ccc(Br)cc2)CC1 | -8.58 | 2.06 µM [falling, partial curve, poor fit] |  |
| Cn1c(O)c(N=NC(=O)Cn2ccc(C(F)(F)F)n2)c2ccccc21 | 10.2 | 0.651 µM [rising, partial curve] |  |
| O=[N+]([O-])c1cc(Cl)ccc1Sc1cccc2cccnc12 | -26.8 |  | 2.31 µM [rising, single point] |
| O=C(c1ccncc1)N(Cc1ccco1)Cc1cc2ccccc2[nH]c1=O | -12.8 |  |  |
| Nc1nc(-c2ccccc2)nc2sc3c(c12)CCCC3 |  | 2.91 µM [rising, single point] |  |
| Cc1ccc(NC(=O)CN(C)CC(=O)Nc2ccc(N3CCOCC3)cc2)c([N+](=O)[O-])c1 | 42 |  | 13 µM [rising, partial curve, poor fit] |
| COc1ccc(Cn2c(=O)n(Cc3ccco3)c(=N)c3c4c(sc32)COC(C)(C)C4)cc1 | -28.8 | 0.092 µM [rising, single point] |  |
| COc1cc2c(cc1OC)C(C(=O)Nc1ccc3c(c1)OCCO3)C(c1cccnc1)N(C)C2=O (stereo not drawn) | -20.1 |  | 2.91 µM [rising, single point] |
| CCOc1ccc(C(=O)N(Cc2ccc(OC)cc2)Cc2cc3cc(OC)ccc3[nH]c2=O)cc1 | -23.7 | 1.84 µM [rising, partial curve] | 1.3 µM [rising, partial curve] |
| Cc1ccsc1C1C(C#N)=C(N)Oc2n[nH]c(C)c21 (stereo not drawn) | -40.1 | 29.1 µM [falling, single point] | 0.326 µM [falling, full curve] |
| CS(=O)(=O)N(CC(=O)NCc1ccco1)c1ccc(Cl)c(C(F)(F)F)c1 | -30.5 |  | 25.9 µM [falling, partial curve, poor fit] |
| O=C(NC(N1CCOCC1)C(Cl)(Cl)Cl)c1ccc(F)cc1 (stereo not drawn) | 124 | 2.06 µM [falling, partial curve] | 6.51 µM [falling, single point] |
| Cc1nc(-c2ccccc2O)n(S(=O)(=O)N(C)C)n1 | 39.4 | 25.9 µM [rising, single point] | 29.1 µM [rising, single point] |
| O=C(Nc1nncs1)c1cc(S(=O)(=O)N2CCOCC2)ccc1Cl |  | 6.31 µM [rising, single point] |  |
| COc1ccccc1NC(=O)CSc1nc2sc(C)c(C)c2c(=O)n1Cc1ccco1 | -16.9 |  |  |
| CC(C)CCN1C(=O)c2ccc(C(=O)NCc3ccco3)cc2C1=O | -2.76 |  |  |
| COc1ccc2[nH]c(=O)c(CN(C(=O)c3ccncc3)C(C)(C)C)cc2c1 | 8.21 | 14.6 µM [rising, partial curve] |  |
| CCn1c(SCC(N)=O)nc2c(c1=O)C1(CCCC1)Cc1ccccc1-2 | 3.83 |  |  |

Nothing new here: an excerpt of the list.

| SMILES | cell number change [%] | AC50 [1] | AC50 [2] |
| --- | --- | --- | --- |
| Cc1ccc(NC(=O)CN(C)CC(=O)Nc2ccc(N3CCOCC3)cc2)c([N+](=O)[O-])c1 | 42 |  | 13 µM [rising, partial curve, poor fit] |
| COc1ccc(Cn2c(=O)n(Cc3ccco3)c(=N)c3c4c(sc32)COC(C)(C)C4)cc1 | -28.8 | 0.092 µM [rising, single point] |  |

Going on with the list:

| SMILES | cell number change [%] | AC50 [1] | AC50 [2] |
| --- | --- | --- | --- |
| COc1ccc(C(=O)N=c2sc3c(C)ccc(OC)c3n2C)cc1OC | 21.6 | 0.651 µM [rising, partial curve] |  |
| CCCN(C(=O)COC(=O)CCOc1ccccc1)c1c(N)n(Cc2ccccc2)c(=O)[nH]c1=O |  | 29.1 µM [falling, single point] |  |
| CCN(CC)C(=O)Cn1c(=O)n(C)c2ccccc21 | -14.2 | 29.1 µM [falling, single point] |  |
| CN(C)c1ccc(CNn2cnnc2SCc2ccc(F)cc2)cc1 | -9.12 |  |  |
| COc1ccc(C2CC(c3ccccc3Cl)Nc3ncnn32)cc1OC (stereo not drawn) | -29.5 | 10.3 µM [falling, partial curve, poor fit] |  |
| O=C(CN1CCN(C2CCS(=O)(=O)C2)CC1)N1N=C(c2ccc(Cl)cc2)CC1c1ccco1 (stereo not drawn) | -8.86 | 23.1 µM [falling, single point] |  |
| Cc1nc2cc(NCc3ccc(Cl)cc3)ccc2n1C | -21.2 | 29.1 µM [falling, single point] |  |
| Cc1ccc(CN2CC(C(=O)N3CCN(c4ccccc4Cl)CC3)CC2=O)cc1 (stereo not drawn) | -18.1 |  |  |
| CCOC(=O)C1=C(CC)Nc2ccccc2N=C1NC(=O)c1cccc(S(=O)(=O)N2CCCC2)c1 | -0.37 | 16.4 µM [rising, single point] |  |
| Cc1[nH]nc(NNC(=O)c2ccccc2)c1[N+](=O)[O-] | -19.7 |  | 1.03 µM [falling, full curve, poor fit] |
| Cc1cc(C)c(S(=O)(=O)c2cccc(C)c2C)c(=O)[nH]1 | 18.5 | 7.31 µM [rising, partial curve] |  |
| CCOC(=O)N1CCN(C(=O)C(c2ccccc2)c2ccccc2)CC1 | 5.9 |  |  |
| C/C=C/c1ccc(OCCOc2cccc3cccnc23)c(OC)c1 | -58.8 | 29.1 µM [falling, single point] | 29.1 µM [falling, single point] |
| CCC(C)(C)n1nnnc1C(c1cccs1)N1CCN(c2nc3ccccc3s2)CC1 (stereo not drawn) | -2.83 | 5.17 µM [rising, partial curve, poor fit] |  |
| O=C(NCCc1ccccc1)C1CCN(S(=O)(=O)N2CCCC2)CC1 | 5.83 |  |  |
| N#Cc1ccc(OCC(=O)N2CCN(c3ccc(C(F)(F)F)cn3)CC2)cc1 | -1.38 | 29.1 µM [rising, single point] |  |
| CCCCC(=O)NC(c1ccc(N(C)C)cc1)c1ccc2cccnc2c1O (stereo not drawn) | -64.9 |  | 16.4 µM [falling, single point] |
| O=C(O)COc1ccc2c(-c3ccccc3)cc(=O)oc2c1 | 1.07 | 29.1 µM [falling, single point] |  |
| O=C(CN1C(=O)NC(c2ccccc2)(c2ccccc2)C1=O)N1CCN(c2ccc(F)cc2)CC1 | -7.26 | 18.4 µM [rising, single point] |  |
| O=C(Nc1ccc(-c2nnc3n2CCCCC3)cc1)c1cnccn1 | 1.82 | 0.00461 µM [falling, full curve, poor fit] |  |
| CC(C)C(OC(=O)c1nsc(Cl)c1Cl)C(=O)NC1CCCCC1 (stereo not drawn) | -19.8 |  |  |

18 of the compounds above, tab-delimited.
SMILES	cell number change [%]	AC50 [1]	AC50 [2]
CN(C)c1ccc(CNn2cnnc2SCc2ccc(F)cc2)cc1	-9.12		
COc1ccc(C2CC(c3ccccc3Cl)Nc3ncnn32)cc1OC (stereo not drawn)	-29.5	10.3 µM [falling, partial curve, poor fit]	
O=C(CN1CCN(C2CCS(=O)(=O)C2)CC1)N1N=C(c2ccc(Cl)cc2)CC1c1ccco1 (stereo not drawn)	-8.86	23.1 µM [falling, single point]	
Cc1nc2cc(NCc3ccc(Cl)cc3)ccc2n1C	-21.2	29.1 µM [falling, single point]	
Cc1ccc(CN2CC(C(=O)N3CCN(c4ccccc4Cl)CC3)CC2=O)cc1 (stereo not drawn)	-18.1		
CCOC(=O)C1=C(CC)Nc2ccccc2N=C1NC(=O)c1cccc(S(=O)(=O)N2CCCC2)c1	-0.37	16.4 µM [rising, single point]	
Cc1[nH]nc(NNC(=O)c2ccccc2)c1[N+](=O)[O-]	-19.7		1.03 µM [falling, full curve, poor fit]
Cc1cc(C)c(S(=O)(=O)c2cccc(C)c2C)c(=O)[nH]1	18.5	7.31 µM [rising, partial curve]	
CCOC(=O)N1CCN(C(=O)C(c2ccccc2)c2ccccc2)CC1	5.9		
C/C=C/c1ccc(OCCOc2cccc3cccnc23)c(OC)c1	-58.8	29.1 µM [falling, single point]	29.1 µM [falling, single point]
CCC(C)(C)n1nnnc1C(c1cccs1)N1CCN(c2nc3ccccc3s2)CC1 (stereo not drawn)	-2.83	5.17 µM [rising, partial curve, poor fit]	
O=C(NCCc1ccccc1)C1CCN(S(=O)(=O)N2CCCC2)CC1	5.83		
N#Cc1ccc(OCC(=O)N2CCN(c3ccc(C(F)(F)F)cn3)CC2)cc1	-1.38	29.1 µM [rising, single point]	
CCCCC(=O)NC(c1ccc(N(C)C)cc1)c1ccc2cccnc2c1O (stereo not drawn)	-64.9		16.4 µM [falling, single point]
O=C(O)COc1ccc2c(-c3ccccc3)cc(=O)oc2c1	1.07	29.1 µM [falling, single point]	
O=C(CN1C(=O)NC(c2ccccc2)(c2ccccc2)C1=O)N1CCN(c2ccc(F)cc2)CC1	-7.26	18.4 µM [rising, single point]	
O=C(Nc1ccc(-c2nnc3n2CCCCC3)cc1)c1cnccn1	1.82	0.00461 µM [falling, full curve, poor fit]	
CC(C)C(OC(=O)c1nsc(Cl)c1Cl)C(=O)NC1CCCCC1 (stereo not drawn)	-19.8		

(further entries)

| SMILES | cell number change [%] | AC50 [1] | AC50 [2] |
| --- | --- | --- | --- |
| Cc1ccc(C2NC(=O)c3c(sc4c3CCN(C)C4)N2)s1 (stereo not drawn) | -1.65 | 5.8 µM [falling, single point] |  |
| CC(=O)c1ccc(N2CCC(C)CC2)c(F)c1 | -30.4 |  |  |
| Cc1cccc(N2CCN(C(=O)CN3C(=O)NC(C)(C4CC4)C3=O)CC2)c1C (stereo not drawn) | 2.03 | 29.1 µM [rising, single point] |  |
| Cc1cccc(N2CC(C(=O)Nc3nnc(SCc4ccccn4)s3)CC2=O)c1 (stereo not drawn) | 21.1 |  |  |
| COC(=O)c1ccc(NC(=O)CSc2nnc(C)n2-c2ccccc2)cc1 | -0.644 |  | 5.8 µM [rising, single point] |
| COc1cccc(NC(=O)NNC(=O)c2ccc3c(c2)NC(=O)C(C)(C)O3)c1 | -37.2 |  | 5.8 µM [falling, partial curve, poor fit] |
| Cc1cc2ncn(S(=O)(=O)N3CCCCC3)c2cc1C |  |  | 4.11 µM [rising, single point] |
| C=CCn1c(SCc2ccccc2)nnc1-c1cccnc1 |  |  | 0.103 µM [rising, full curve, poor fit] |
| COc1ccc(Cc2noc(CN(C)CC3CCN(Cc4ccccc4)CC3)n2)cc1OC |  | 23.1 µM [rising, single point] |  |
| CC(NC(=O)c1cccnc1)C(c1ccccc1)N1CCN(C)CC1 (stereo not drawn) |  | 23.1 µM [falling, partial curve] |  |
| Cc1ccc2c(C)c(C(=O)NCCc3ccco3)oc2c1C | -0.587 | 13 µM [rising, partial curve, poor fit] |  |
| CCCCN(C(=O)COC(=O)CSc1ccc([N+](=O)[O-])cc1)c1c(N)n(CCC)c(=O)[nH]c1=O | -45.9 | 20.6 µM [falling, partial curve] | 25.9 µM [falling, partial curve, poor fit] |
| CC(C)(C)NC(=S)NCc1ccc2c(c1)OCO2 | 32.1 | 18.4 µM [rising, partial curve] | 25.9 µM [rising, single point] |
| CCCN1Cc2cccc(C(=O)Nc3ccc(C)cc3)c2C1=O |  | 0.13 µM [rising, full curve, poor fit] | 0.259 µM [rising, full curve] |
| O=C(c1ccc2c(c1)N(Cc1ccccc1)CCS2)N1CCOCC1 | -38 | 3.26 µM [falling, single point] | 32.6 µM [falling, single point] |
| Cc1ccc(P(=O)(CO)c2ccc(C)cc2)cc1 | 20.1 | 18.4 µM [falling, single point] |  |
| COc1ccc(CCNc2cc(C)nc3c(-c4ccccc4)cnn23)cc1OC | 2.87 | 6.51 µM [rising, single point] |  |
| N#Cc1ccccc1NC(=O)CSC1=Nc2ccccc2C2CC=NN12 (stereo not drawn) | 32.1 |  | 0.366 µM [rising, full curve, poor fit] |
| COc1ccc(Cn2nc(C)n(N(C)c3ncc(C(F)(F)F)cc3Cl)c2=O)cc1 | 29.9 | 6.51 µM [rising, single point] |  |
| CCOc1ccc(NC(=O)CN(C)C(=O)c2ccc(OCc3ccccc3)c(OC)c2)cc1OCC | -75 |  | 29.1 µM [falling, partial curve, poor fit] |
